The target in test [1] is PH-TH domain of BTK wildtype (amino acid residue number 4-170) (UniProt Q06187). Kind of test: SEC; Superdex-200 10/300 GL; 500 ul of 75 uM protein mixed with IP6 at 1:4 (300 uM), 15 min at 4 C; column pre-equilibrated with running buffer containing the ligand; 25 mM Tris-Cl, 100 mM NaCl, 1 mM DTT, pH 7.2; 0.3 ml/min, 8 C; both purified. A general note: SEC sorts molecules by how far they enter the pores of the column.

The chains behind the UniProt entries cited, without tags or fusion partners. Where a name states a change or a piece, a line headed by the entry shows the natural chain unless it says otherwise. A line that says so, or that is headed by a name, gives the form on record, which may keep a tag or linker. Residues count along the entry.
PH-TH domain of BTK wildtype (amino acid residue number 4-170) (Q06187, residues 4-170): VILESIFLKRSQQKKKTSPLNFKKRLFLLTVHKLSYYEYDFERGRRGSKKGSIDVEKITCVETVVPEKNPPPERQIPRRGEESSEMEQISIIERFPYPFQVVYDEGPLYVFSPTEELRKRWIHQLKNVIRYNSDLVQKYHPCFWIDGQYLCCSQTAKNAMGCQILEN
PH-TH domain of BTK, E41K/R28H double mutant (Q06187, form named): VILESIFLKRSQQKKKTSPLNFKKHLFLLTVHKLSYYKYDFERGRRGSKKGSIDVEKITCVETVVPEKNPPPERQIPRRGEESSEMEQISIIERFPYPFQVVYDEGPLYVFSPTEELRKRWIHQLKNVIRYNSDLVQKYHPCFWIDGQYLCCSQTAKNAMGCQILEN
PH-TH domain of BTK, E41K/R49S double mutant (Q06187, form named): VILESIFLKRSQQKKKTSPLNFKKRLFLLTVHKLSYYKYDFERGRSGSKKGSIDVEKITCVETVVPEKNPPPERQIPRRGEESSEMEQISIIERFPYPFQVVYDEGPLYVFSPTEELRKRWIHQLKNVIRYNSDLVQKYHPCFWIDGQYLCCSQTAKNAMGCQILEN
triple mutant of the PH-TH domain of BTK (E41K/R28H/R49S) (Q06187, form named): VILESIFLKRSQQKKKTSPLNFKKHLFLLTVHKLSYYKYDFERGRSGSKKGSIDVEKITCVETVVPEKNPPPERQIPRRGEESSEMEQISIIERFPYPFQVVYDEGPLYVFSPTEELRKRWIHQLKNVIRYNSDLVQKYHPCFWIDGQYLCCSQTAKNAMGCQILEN

Test [2] has the same target. Kind of test: dynamic light scattering; Malvern Zetasizer; in the presence of IP6; 25 mM Tris-Cl, 100 mM NaCl, 1 mM DTT, pH 7.2; hydrodynamic radius compared with the theoretical radius of the dimer (3.0 nm, Hydropro); both purified.
Test [3] deals with PH-TH domain of BTK, E41K/R28H double mutant (UniProt Q06187). As to the kind of experiment: SEC; Superdex-200 10/300 GL; 500 ul of 75 uM protein mixed with IP6 at 1:4 (300 uM), 15 min at 4 C; column pre-equilibrated with running buffer containing the ligand; 25 mM Tris-Cl, 100 mM NaCl, 1 mM DTT, pH 7.2; 0.3 ml/min, 8 C; both purified.
For test [4], the target named is PH-TH domain of BTK, E41K/R49S double mutant (UniProt Q06187). Described as above.
The target of test [5] is triple mutant of the PH-TH domain of BTK (E41K/R28H/R49S) (UniProt Q06187). Described as above.

These are yes or no findings as the source states them, for the method shown.

For the substance “PH-TH domain of BTK wildtype (amino acid residue number 4-170) (from UniProt Q06187 4-170) (domain or fragment)”, the binding result is “no binding (tested: 75 uM protein loaded, with IP6)” in test [1] and “no binding” in test [2].

Consider “PH-TH domain of BTK, E41K/R28H double mutant (from UniProt Q06187 4-170) (domain or fragment)”, for which, in test [3], the binding result was “no binding (tested: 75 uM protein loaded, with IP6)”.

“PH-TH domain of BTK, E41K/R49S double mutant (from UniProt Q06187 4-170) (domain or fragment)”: the binding entry in test [4] is recorded as “no binding (tested: 75 uM protein loaded, with IP6)”.

Regarding “triple mutant of the PH-TH domain of BTK (E41K/R28H/R49S) (from UniProt Q06187 4-170) (domain or fragment)”, the binding result in test [5] is “no binding (tested: 75 uM protein loaded)”.

Values taken from paper PMC11338949, “E41K mutation activates Bruton’s tyrosine kinase by stabilizing an inositol hexakisphosphate-dependent invisible dimer” (The Journal of Biological Chemistry, 2024).
